Measurements from PubChem BioAssay AID1487 (National Center for Advancing Translational Sciences (NCATS), 2009).
This is one part of the list. Shown are side measurements of this screen, not its main read-out; they come without a call. Compounds called inactive in the main read-out are mostly missing here. Words in brackets tell the shape of the fitted curve; partial curves, single points and poor fits give uncertain potencies.

Experiment: qHTS Assay for Modulators of Lamin A Splicing
Conditions: HeLa LMNA splicing GFP/RFP minigene ratio, 48 h
Method in brief: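 Read-out is the ratio of GFP to DsRed2 object intensity, acquired by 488 nm laser-scanning cytometry on HeLa lamin A-EGFP minigene reporter cells. Compound incubation 48 hrs at 37 °C in Opti-MEM with 2% FBS; DMSO 0.5% final.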

[1] = measured here: RFP viability control channel
[2] = measured here: GFP splicing reporter channel

SMILES | AC50 [1] | AC50 [2]
Cc1cccc(-n2nnc(C(=O)Nc3ccc(F)cc3)c2N)c1 | 0.0126 µM [rising, full curve, poor fit] | –
CS(=O)(=O)Nc1ccc(C2=NN(S(C)(=O)=O)C(c3cccs3)C2)cc1 (stereo not given) | 0.0224 µM [falling, single point] | –
O=c1c(-c2cc(F)cc(F)c2)nc2cnc(N3CCNCC3)nc2n1C1CC1 | 14.1 µM [falling, single point] | 15.8 µM [falling, partial curve]
CCOC(=O)c1c(NC(=O)CC(C)C)sc(C(C)=O)c1C | 15.8 µM [rising, single point] | 20 µM [rising, single point]
C=CCSC(=C(C#N)C#N)c1cc2c([nH]1)CCCC2 | 35.5 µM [falling, single point] | 10 µM [falling, single point]
O=C1c2ccccc2NC(c2ccc(Cl)cc2Cl)N1O (stereo not given) | – | 22.4 µM [falling, single point]
CCC(Sc1nc2cc3c(cc2c(=O)n1CCCC(=O)NCc1ccc(OC)cc1)OCO3)C(=O)NCCCOC (stereo not given) | 3.16 µM [falling, single point] | 3.98 µM [falling, single point]
CC(C)(C)N(Cc1ccccc1)C(=O)COC(=O)Cn1cnc2ccccc2c1=O | 2.51 µM [falling, full curve] | –
COc1ccc(-c2nnc(SCC(=O)c3ccc[nH]3)n2-c2ccccc2)cc1 | 35.5 µM [rising, single point] | 0.631 µM [rising, partial curve, poor fit]
COc1cccc(C(=O)CSc2nnc(COc3cccc4cccnc34)o2)c1 | 1.58 µM [rising, full curve, poor fit] | –
O=c1[nH]nc(Sc2ncnc3sccc23)n1CCc1ccccc1 | 10 µM [rising, partial curve] | –
CN1/C(=C\C(=S)Nc2ccccc2)C(C)(C)c2ccccc21 | 0.891 µM [falling, full curve] | 6.31 µM [falling, partial curve]
Cc1ccc2nc(N3CCC(C(=O)NCc4ccc(F)cc4)CC3)[nH]c2c1 | 1.12 µM [rising, full curve, poor fit] | –
CCOC(=O)C(=Cc1cn(C)c2ccc(S(=O)(=O)N(C)C)cc12)C(=O)OCC | 0.794 µM [falling, single point] | 1.12 µM [falling, partial curve]
CSc1nc(C2CC2)cc(-c2cccs2)c1C#N | 35.5 µM [falling, single point] | 35.5 µM [falling, single point]
CN(C)/C=N/c1cc(=O)n(C)c(=O)n1Cc1ccccc1 | 11.2 µM [rising, partial curve, poor fit] | –
CCN(CC)C(=O)Cn1cc(S(=O)(=O)CC(=O)NCc2ccc3c(c2)OCO3)c2ccccc21 | – | 0.0316 µM [rising, full curve, poor fit]
COc1cc(OC)cc(-c2nnc(SCC(=O)N3CCCc4ccccc43)o2)c1 | 20 µM [rising, single point] | 35.5 µM [rising, single point]
Cc1ccc(CCNC(=O)c2ccc(CS(=O)(=O)Cc3cccc(C)c3)o2)cc1 | 0.02 µM [falling, full curve, poor fit] | 0.0112 µM [falling, full curve, poor fit]
COc1ccc2nc(C)cc(SCC(=O)N/N=C/c3ccc(O)cc3O)c2c1 | 12.6 µM [rising, partial curve] | –
CC(C)(C)C(=O)Nc1cccc(OC(F)(F)C(F)Cl)c1 (stereo not given) | 0.00316 µM [falling, full curve, poor fit] | –
COC(=O)c1c(NC(=O)CSc2ncnc3c2cnn3-c2ccccc2Cl)sc2c1CCCC2 | 12.6 µM [rising, partial curve] | –
CN(C)c1nc(N2CCOCC2)nc(N(c2ccccc2)c2ccccc2)n1 | 35.5 µM [rising, single point] | –
O=S(=O)(O)C1CCNCC1 | 7.08 µM [rising, full curve, poor fit] | 11.2 µM [rising, partial curve]
COc1ccc2c(c1)C(SCC(=O)NCCc1ccc(Cl)cc1)CC(C)(C)O2 (stereo not given) | 12.6 µM [rising, single point] | –
O=c1c2cn[nH]c2nc(SCc2ccccc2F)n1-c1ccc(Br)cc1 | – | 0.0794 µM [rising, full curve, poor fit]
CC(OC(=O)c1oc2ccccc2c1CSC1CCCCC1)C(=O)NC(N)=O (stereo not given) | 17.8 µM [falling, single point] | 14.1 µM [falling, partial curve, poor fit]

Full records, quoted from the list. Values in the order: AC50 [1]	AC50 [2]
O=c1c(-c2cc(F)cc(F)c2)nc2cnc(N3CCNCC3)nc2n1C1CC1 is entered as 14.1 µM [falling, single point]	15.8 µM [falling, partial curve]
O=c1[nH]nc(Sc2ncnc3sccc23)n1CCc1ccccc1 is entered as 10 µM [rising, partial curve]	–
COc1ccc(-c2nnc(SCC(=O)c3ccc[nH]3)n2-c2ccccc2)cc1 is entered as 35.5 µM [rising, single point]	0.631 µM [rising, partial curve, poor fit]

Remaining list, next part.

SMILES | AC50 [1] | AC50 [2]
NC(=O)c1ccsc1NC(=O)COC(=O)Cc1cccc2ccccc12 | 11.2 µM [rising, partial curve] | –
COc1ccc(NS(=O)(=O)c2cccc(Cl)c2Cl)cc1S(=O)(=O)N1CCCCC1 | 5.62 µM [rising, partial curve] | –
CC(C)NC(=O)COC(=O)C1CSC2(c3ccc(Br)cc3)CCC(=O)N12 (stereo not given) | – | 0.355 µM [rising, full curve]
Oc1c(C(Nc2nc3ccccc3s2)c2ccco2)ccc2cccnc12 (stereo not given) | 5.62 µM [rising, single point] | 2.82 µM [rising, single point]
CCN(CC)c1ccc(C(=O)OCc2cc(=O)oc3cc(O)ccc23)cc1 | 17.8 µM [falling, partial curve] | 20 µM [falling, partial curve, poor fit]
Cc1cc(C)n(CCN(C)C(=O)CCc2nnc(-c3ccc4c(c3)OCO4)o2)n1 | – | 0.00355 µM [falling, full curve, poor fit]
S=c1[nH]nc(CSc2nc3ccccc3s2)n1C1CCCCC1 | 35.5 µM [rising, single point] | 8.91 µM [rising, single point]
C=CCn1c(SCC(=O)Nc2cccc(C)c2)nnc1-c1cnccn1 | – | 31.6 µM [rising, single point]
COc1ccc(NC(=O)c2cc(S(=O)(=O)NCCC3=CCCCC3)ccc2F)cc1 | 15.8 µM [rising, single point] | –
O=C(NCCc1csc(-c2ccc(Cl)cc2)n1)c1cccs1 | 22.4 µM [falling, partial curve, poor fit] | 7.08 µM [falling, partial curve, poor fit]
CC(=O)c1c(C)[nH]c(C(=O)OCC(=O)N2CCN(S(=O)(=O)c3ccc(C)cc3C)CC2)c1C | 31.6 µM [rising, single point] | –
COC(=O)CCCCCN1C(=O)NC(c2ccc(-c3ccccc3)cc2)C(C(=O)OCc2ccccc2)=C1C (stereo not given) | 25.1 µM [rising, single point] | –
CCc1cc2c(=O)n(-c3ccc(C)cc3)cnc2s1 | 17.8 µM [rising, partial curve] | –
Nc1[nH]ncc1-c1ccccc1 | 0.0112 µM [falling, full curve, poor fit] | –
COc1ccc(NC(=O)CCNS(=O)(=O)c2cccc3nsnc23)cc1 | – | 0.00447 µM [falling, full curve, poor fit]
CCn1c(SCC(=O)c2ccccc2)nnc1-c1cccnc1 | – | 2.82 µM [rising, single point]
O=C(Nc1cccc(Br)c1)N1CCC(CN2CCCCC2)CC1 | 5.62 µM [falling, partial curve, poor fit] | –
O=C(NCC(c1cccs1)N1CCOCC1)c1ccccc1NS(=O)(=O)c1ccc(Cl)cc1 (stereo not given) | 0.01 µM [rising, full curve, poor fit] | –
CC(O)c1cccc(NC(=O)CCCc2ccccc2)c1 (stereo not given) | 0.224 µM [falling, full curve, poor fit] | 7.08 µM [falling, full curve]
CC1CCCCC1NS(=O)(=O)c1ccc(S(=O)(=O)N2CCCC2)cc1 (stereo not given) | 12.6 µM [rising, single point] | 11.2 µM [rising, single point]
COc1ccc(S(=O)(=O)N2CCCC2c2cccs2)cc1 (stereo not given) | 0.00501 µM [falling, full curve, poor fit] | 25.1 µM [falling, partial curve, poor fit]
CC(C)(C)c1ccc(OCc2nc(-c3ccccn3)no2)c(Br)c1 | 17.8 µM [rising, partial curve, poor fit] | 3.55 µM [rising, partial curve]
CCCCOC(=O)Cn1cnc2ccc(Br)cc2c1=O | 4.47 µM [falling, partial curve, poor fit] | –
COc1ccccc1NS(=O)(=O)c1ccc(NN=C2CCCCC2)c([N+](=O)[O-])c1 | 22.4 µM [rising, single point] | 12.6 µM [rising, partial curve]
CC1C(=O)CC(c2ccc([N+](=O)[O-])cc2)NC1c1ccc([N+](=O)[O-])cc1 (stereo not given) | 0.0398 µM [rising, full curve, poor fit] | –
COc1ccc(NC(=O)Cn2nnc(-c3ccccc3NS(=O)(=O)c3ccc(OC)cc3)n2)cc1 | 3.98 µM [rising, single point] | –
CC(C)c1nc(SCC(=O)Nc2ccc(N3CCOCC3)cc2)c2ccccc2n1 | 11.2 µM [rising, partial curve, poor fit] | –
